This is one part of the list.
compound: C[C@H](Nc1ncnc2nc[nH]c12)c1cc2cccc(Cl)c2c(=O)n1-c1ccccc1 [duvelisib]; assay: log2 fold change, soluble protein after heating vs DMSO (PISA); higher = thermal stabilisation; K562 cells, 10 uM, 30 min; active = over 0.2 and 3.5 SD of the protein, either way, in both replicates (recomputed)
How it was run: (§1)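 Aliquots of K562 cells (2×10^6 cells/mL) treated with 10 μM compound for 30 min were heated for 3 min over 48°C-58°C. After pooling and extraction in PBS with 0.5% NP-40 at 4°C, soluble protein from a 21,000xg, 90 min spin was quantified by TMTpro 16plex LC-MS/MS with channel sums equalised. Thermal stability is expressed against control samples, from duplicates, as a log2 fold change.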

Amino acid sequences for entries named in this document (tags omitted). A change or cut given only in a name is not applied to a line headed by its entry.
UniProt Q99988: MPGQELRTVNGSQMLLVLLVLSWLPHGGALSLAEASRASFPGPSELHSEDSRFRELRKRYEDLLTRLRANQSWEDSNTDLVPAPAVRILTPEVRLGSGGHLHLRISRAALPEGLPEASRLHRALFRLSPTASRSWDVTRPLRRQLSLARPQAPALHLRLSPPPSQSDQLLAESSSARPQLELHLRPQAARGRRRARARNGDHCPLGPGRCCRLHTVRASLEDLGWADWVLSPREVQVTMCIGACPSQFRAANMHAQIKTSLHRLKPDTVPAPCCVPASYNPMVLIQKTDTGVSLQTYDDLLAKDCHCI
UniProt P16383: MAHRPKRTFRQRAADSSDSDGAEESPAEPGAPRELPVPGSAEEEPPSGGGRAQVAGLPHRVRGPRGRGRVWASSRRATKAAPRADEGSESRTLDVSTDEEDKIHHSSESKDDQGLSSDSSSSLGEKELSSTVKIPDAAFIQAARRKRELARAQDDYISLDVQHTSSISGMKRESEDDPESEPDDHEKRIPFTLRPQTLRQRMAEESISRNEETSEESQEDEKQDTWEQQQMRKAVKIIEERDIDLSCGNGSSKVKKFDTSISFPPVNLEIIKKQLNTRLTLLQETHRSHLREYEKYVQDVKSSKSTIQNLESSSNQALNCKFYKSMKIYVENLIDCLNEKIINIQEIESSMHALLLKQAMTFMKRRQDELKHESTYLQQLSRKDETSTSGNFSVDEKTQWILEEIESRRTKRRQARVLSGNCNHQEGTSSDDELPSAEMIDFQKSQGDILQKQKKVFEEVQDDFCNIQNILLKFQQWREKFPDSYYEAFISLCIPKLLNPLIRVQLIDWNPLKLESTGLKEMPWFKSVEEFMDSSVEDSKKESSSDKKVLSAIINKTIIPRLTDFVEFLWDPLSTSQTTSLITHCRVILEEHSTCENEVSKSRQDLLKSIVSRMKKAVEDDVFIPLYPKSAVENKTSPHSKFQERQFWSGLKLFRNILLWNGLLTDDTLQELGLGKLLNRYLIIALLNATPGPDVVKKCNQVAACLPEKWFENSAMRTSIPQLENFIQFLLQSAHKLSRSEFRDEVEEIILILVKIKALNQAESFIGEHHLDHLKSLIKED
UniProt Q6ZNW5: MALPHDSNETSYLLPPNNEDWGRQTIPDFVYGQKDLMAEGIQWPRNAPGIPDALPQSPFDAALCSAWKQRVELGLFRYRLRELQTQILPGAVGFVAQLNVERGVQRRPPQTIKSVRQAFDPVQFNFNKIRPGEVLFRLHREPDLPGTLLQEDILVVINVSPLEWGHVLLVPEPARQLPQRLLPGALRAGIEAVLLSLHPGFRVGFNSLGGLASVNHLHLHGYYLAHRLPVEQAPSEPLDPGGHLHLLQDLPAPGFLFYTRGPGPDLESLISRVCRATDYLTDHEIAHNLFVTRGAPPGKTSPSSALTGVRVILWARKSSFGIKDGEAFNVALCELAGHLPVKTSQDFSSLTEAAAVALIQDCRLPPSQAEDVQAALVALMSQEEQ
UniProt Q06547, whole entry, looked up: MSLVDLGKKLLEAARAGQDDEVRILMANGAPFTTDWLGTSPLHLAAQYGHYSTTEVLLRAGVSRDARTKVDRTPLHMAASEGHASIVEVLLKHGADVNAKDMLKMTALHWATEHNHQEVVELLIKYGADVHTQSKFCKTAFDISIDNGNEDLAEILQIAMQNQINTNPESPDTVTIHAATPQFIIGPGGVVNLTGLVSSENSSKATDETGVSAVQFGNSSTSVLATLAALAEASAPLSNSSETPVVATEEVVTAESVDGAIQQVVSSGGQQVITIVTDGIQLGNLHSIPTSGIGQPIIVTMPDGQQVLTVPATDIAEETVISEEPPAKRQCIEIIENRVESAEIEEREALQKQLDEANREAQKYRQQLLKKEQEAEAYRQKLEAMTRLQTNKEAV
UniProt Q9NXC2: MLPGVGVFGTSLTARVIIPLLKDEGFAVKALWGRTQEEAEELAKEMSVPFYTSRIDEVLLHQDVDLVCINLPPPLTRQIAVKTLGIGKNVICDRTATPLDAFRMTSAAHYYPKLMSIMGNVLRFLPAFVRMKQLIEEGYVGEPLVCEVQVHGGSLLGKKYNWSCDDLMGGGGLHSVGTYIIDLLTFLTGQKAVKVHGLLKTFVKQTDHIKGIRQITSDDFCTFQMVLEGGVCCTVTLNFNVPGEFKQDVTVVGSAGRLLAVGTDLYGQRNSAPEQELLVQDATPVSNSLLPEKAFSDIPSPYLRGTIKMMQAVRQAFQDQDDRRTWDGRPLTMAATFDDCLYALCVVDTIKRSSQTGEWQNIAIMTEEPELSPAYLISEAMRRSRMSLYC
UniProt Q6P4F1: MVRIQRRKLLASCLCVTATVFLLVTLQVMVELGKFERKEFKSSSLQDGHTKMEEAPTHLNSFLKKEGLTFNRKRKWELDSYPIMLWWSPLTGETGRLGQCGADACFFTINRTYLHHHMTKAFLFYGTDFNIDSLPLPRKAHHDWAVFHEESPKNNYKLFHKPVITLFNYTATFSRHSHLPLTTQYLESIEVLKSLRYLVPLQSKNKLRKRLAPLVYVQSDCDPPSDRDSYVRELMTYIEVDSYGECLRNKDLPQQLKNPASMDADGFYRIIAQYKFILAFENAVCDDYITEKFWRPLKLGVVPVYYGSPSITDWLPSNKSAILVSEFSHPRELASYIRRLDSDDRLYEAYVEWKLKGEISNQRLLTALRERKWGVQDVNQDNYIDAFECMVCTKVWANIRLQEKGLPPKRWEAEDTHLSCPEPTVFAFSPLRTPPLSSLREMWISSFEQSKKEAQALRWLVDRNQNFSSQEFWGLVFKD
UniProt Q96QD9: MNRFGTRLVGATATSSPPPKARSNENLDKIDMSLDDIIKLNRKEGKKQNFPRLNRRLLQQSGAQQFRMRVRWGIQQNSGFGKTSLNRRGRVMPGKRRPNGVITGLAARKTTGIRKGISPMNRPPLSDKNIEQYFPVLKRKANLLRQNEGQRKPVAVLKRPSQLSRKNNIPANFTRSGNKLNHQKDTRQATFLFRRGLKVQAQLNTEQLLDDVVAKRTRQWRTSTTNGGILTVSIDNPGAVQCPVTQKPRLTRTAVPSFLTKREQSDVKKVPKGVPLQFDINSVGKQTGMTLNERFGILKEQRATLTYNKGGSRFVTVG
UniProt Q9NWZ8: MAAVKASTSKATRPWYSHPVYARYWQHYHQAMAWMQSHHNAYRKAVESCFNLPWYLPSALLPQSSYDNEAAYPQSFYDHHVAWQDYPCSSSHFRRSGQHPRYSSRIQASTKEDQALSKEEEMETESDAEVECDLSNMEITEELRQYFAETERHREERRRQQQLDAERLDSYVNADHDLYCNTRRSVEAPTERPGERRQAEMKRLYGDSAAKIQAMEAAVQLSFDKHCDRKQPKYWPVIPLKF
UniProt Q14697: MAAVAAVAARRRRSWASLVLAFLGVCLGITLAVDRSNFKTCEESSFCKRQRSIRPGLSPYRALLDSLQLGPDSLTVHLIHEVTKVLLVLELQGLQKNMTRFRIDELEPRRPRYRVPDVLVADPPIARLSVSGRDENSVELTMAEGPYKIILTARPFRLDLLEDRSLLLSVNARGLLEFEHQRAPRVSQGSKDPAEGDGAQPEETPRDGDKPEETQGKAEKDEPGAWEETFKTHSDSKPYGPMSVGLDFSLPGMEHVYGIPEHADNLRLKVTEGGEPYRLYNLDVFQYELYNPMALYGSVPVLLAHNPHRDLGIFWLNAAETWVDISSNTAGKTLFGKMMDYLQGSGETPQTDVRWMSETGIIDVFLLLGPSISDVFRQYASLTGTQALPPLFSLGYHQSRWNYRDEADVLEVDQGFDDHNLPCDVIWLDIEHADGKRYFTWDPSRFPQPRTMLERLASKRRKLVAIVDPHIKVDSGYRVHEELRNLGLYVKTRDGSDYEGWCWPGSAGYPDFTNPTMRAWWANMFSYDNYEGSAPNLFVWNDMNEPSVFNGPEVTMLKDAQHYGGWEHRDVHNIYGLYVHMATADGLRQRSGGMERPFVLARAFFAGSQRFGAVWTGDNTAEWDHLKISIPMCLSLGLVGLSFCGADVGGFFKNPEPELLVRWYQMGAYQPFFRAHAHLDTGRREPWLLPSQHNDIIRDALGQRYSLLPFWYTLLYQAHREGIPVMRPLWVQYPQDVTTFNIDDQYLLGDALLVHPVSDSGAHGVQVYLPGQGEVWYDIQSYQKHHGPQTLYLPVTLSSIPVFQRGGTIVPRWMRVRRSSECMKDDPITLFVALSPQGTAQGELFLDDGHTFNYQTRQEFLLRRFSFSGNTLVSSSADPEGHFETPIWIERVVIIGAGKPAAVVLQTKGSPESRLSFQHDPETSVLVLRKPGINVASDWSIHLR
UniProt Q9BZ67: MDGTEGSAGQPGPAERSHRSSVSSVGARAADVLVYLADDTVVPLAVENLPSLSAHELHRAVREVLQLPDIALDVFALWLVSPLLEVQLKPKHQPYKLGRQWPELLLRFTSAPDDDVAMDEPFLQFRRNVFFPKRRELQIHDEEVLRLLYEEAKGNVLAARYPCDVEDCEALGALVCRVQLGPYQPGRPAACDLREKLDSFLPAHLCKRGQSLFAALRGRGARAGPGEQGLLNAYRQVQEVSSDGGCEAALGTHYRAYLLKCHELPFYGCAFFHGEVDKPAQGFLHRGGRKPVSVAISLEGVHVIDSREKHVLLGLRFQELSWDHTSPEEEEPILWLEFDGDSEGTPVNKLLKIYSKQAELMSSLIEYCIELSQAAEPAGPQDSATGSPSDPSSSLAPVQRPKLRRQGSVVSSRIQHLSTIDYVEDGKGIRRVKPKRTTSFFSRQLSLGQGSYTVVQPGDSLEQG
UniProt Q5JV73, whole entry, looked up: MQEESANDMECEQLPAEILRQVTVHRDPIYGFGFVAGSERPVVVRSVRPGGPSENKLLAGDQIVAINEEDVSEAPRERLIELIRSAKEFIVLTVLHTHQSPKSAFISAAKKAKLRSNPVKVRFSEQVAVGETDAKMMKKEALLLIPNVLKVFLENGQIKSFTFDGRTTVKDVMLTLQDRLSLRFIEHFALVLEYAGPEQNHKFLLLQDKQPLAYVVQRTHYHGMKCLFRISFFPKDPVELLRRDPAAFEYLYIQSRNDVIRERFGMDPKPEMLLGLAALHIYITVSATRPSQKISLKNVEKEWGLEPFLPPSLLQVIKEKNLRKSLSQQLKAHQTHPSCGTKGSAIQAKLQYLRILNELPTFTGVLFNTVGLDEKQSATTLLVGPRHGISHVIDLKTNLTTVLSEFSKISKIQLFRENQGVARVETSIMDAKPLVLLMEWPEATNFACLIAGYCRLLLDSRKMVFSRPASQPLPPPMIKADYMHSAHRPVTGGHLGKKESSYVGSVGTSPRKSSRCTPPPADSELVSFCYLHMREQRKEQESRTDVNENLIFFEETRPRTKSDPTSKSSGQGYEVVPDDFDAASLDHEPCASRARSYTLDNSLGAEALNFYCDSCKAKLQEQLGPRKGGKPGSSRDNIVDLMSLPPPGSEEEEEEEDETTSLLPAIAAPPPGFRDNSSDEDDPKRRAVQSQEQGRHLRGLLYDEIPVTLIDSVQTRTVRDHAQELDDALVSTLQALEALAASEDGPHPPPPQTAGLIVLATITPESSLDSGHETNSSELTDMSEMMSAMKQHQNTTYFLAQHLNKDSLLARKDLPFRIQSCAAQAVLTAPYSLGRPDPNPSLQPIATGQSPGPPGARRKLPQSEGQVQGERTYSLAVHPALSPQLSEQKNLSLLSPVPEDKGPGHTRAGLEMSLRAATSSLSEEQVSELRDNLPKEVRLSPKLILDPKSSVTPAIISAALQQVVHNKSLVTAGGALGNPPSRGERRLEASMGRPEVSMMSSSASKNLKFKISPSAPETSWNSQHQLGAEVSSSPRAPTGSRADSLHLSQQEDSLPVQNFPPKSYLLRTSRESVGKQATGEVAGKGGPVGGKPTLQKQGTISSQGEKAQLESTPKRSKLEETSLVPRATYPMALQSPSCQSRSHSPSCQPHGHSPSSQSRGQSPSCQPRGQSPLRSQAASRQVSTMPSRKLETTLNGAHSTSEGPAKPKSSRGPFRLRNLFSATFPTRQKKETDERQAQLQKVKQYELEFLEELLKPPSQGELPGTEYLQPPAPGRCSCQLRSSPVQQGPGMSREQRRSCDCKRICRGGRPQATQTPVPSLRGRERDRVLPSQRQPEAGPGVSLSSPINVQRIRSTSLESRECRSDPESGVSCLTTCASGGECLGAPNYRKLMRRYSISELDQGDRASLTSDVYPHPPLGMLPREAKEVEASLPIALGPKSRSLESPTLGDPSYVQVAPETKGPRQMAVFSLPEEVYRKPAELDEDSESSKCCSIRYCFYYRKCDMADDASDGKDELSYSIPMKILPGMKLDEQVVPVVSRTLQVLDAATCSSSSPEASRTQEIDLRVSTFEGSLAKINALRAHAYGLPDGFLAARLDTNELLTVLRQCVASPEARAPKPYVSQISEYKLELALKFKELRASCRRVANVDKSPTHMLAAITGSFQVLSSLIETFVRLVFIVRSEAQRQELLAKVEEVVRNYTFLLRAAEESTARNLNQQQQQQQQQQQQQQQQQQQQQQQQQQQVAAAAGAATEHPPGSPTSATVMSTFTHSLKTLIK

**Q.** Which log2 fold change does the source give for GCG (UniProt P01275) here?
**A.** Its log2 fold change is inactive: -0.224.

**Q.** With GDF15 (UniProt Q99988) as the target, how does the log2 fold change read?
**A.** The log2 fold change was inactive: -0.076.

**Q.** For GCFC2 isoform 3 (UniProt P16383), which log2 fold change is on record?
**A.** Its log2 fold change is inactive: -0.078.

**Q.** Which log2 fold change does the source give for GDPGP1 (UniProt Q6ZNW5) here?
**A.** Its log2 fold change is inactive: 0.047.

**Q.** How did the log2 fold change turn out when GABPB1 isoform 3 (UniProt Q06547) was run?
**A.** Its log2 fold change is inactive: 0.062.

compound: Cc1cc(Nc2cc(CN3CCOCC3)c3nc(C)c(Cc4ccc(Cl)cc4F)n3n2)n[nH]1 [gandotinib]; assay: as above
How it was run: as §1

**Q.** Which log2 fold change does the source give for GDPD3 (UniProt Q7L5L3) here?
**A.** The log2 fold change was inactive: 0.055.

**Q.** Which log2 fold change does the source give for GFOD1 (UniProt Q9NXC2) here?
**A.** The log2 fold change was inactive: 0.008.

**Q.** FUT10 isoform 2 (UniProt Q6P4F1) was tested. Which log2 fold change did it give?
**A.** Its log2 fold change is inactive: 0.175.

**Q.** How did the log2 fold change turn out when GEMIN7 (UniProt Q9H840) was run?
**A.** The log2 fold change was inactive: 0.449.

**Q.** For FYTTD1 (UniProt Q96QD9), which log2 fold change is on record?
**A.** Its log2 fold change is inactive: 0.128.

**Q.** How did the log2 fold change turn out when GALNT3 (UniProt Q14435) was run?
**A.** Its log2 fold change is inactive: 0.251.

**Q.** Which log2 fold change does the source give for GCC1 (UniProt Q96CN9) here?
**A.** Its log2 fold change is inactive: 0.307.

**Q.** How did the log2 fold change turn out when GFAP isoform 2 (UniProt P14136) was run?
**A.** The log2 fold change was inactive: -0.205.

**Q.** For GABPB1 isoform 3 (UniProt Q06547), which log2 fold change is on record?
**A.** The log2 fold change was inactive: -0.117.

compound: Cc1cc(Nc2cc(N3CCN(C)CC3)nc(Sc3ccc(NC(=O)C4CC4)cc3)n2)n[nH]1 [tozasertib]; assay: as above
How it was run: as §1

**Q.** How did the log2 fold change turn out when GEMIN8 (UniProt Q9NWZ8) was run?
**A.** Its log2 fold change is inactive: 0.124.

**Q.** How did the log2 fold change turn out when GDF15 (UniProt Q99988) was run?
**A.** Its log2 fold change is inactive: 0.131.

**Q.** Which log2 fold change does the source give for GANAB (UniProt Q14697) here?
**A.** The log2 fold change was inactive: -0.445.

**Q.** How did the log2 fold change turn out when FRMD8 (UniProt Q9BZ67) was run?
**A.** The log2 fold change was inactive: -0.197.

**Q.** For FUT4 (UniProt P22083), which log2 fold change is on record?
**A.** The log2 fold change was inactive: -0.073.

**Q.** GCFC2 isoform 3 (UniProt P16383) was tested. Which log2 fold change did it give?
**A.** The log2 fold change was inactive: 0.216.

**Q.** Which log2 fold change does the source give for GDPGP1 (UniProt Q6ZNW5) here?
**A.** Its log2 fold change is inactive: 0.101.

**Q.** FYTTD1 (UniProt Q96QD9) was tested. Which log2 fold change did it give?
**A.** Its log2 fold change is inactive: -0.269.

**Q.** Which log2 fold change does the source give for GALNT3 (UniProt Q14435) here?
**A.** The log2 fold change was inactive: 0.075.

**Q.** Which log2 fold change does the source give for GABPB1 isoform 3 (UniProt Q06547) here?
**A.** The log2 fold change was inactive: 0.191.

**Q.** Which log2 fold change does the source give for FRMPD3 (UniProt Q5JV73) here?
**A.** Its log2 fold change is inactive: -0.122.

compound: Cc1cc(SCc2sc(-c3ccc(C(F)(F)F)cc3)nc2C)ccc1OCC(=O)O; assay: as above
How it was run: as §1

**Q.** For GCG (UniProt P01275), which log2 fold change is on record?
**A.** Its log2 fold change is inactive: -0.168.

**Q.** With GDF15 (UniProt Q99988) as the target, how does the log2 fold change read?
**A.** The log2 fold change was inactive: 0.108.

**Q.** How did the log2 fold change turn out when GCFC2 isoform 3 (UniProt P16383) was run?
**A.** Its log2 fold change is inactive: -0.107.

**Q.** For GDPGP1 (UniProt Q6ZNW5), which log2 fold change is on record?
**A.** Its log2 fold change is inactive: 0.111.

**Q.** How did the log2 fold change turn out when GABPB1 isoform 3 (UniProt Q06547) was run?
**A.** The log2 fold change was inactive: 0.118.

compound: Cc1ccc(-n2nc(C(C)(C)C)cc2NC(=O)Nc2ccc(OCCN3CCOCC3)c3ccccc23)cc1 [doramapimod]; assay: as above
How it was run: as §1

**Q.** For GAL (UniProt P22466), which log2 fold change is on record?
**A.** Its log2 fold change is inactive: 0.009.

**Q.** GDF15 (UniProt Q99988) was tested. Which log2 fold change did it give?
**A.** The log2 fold change was inactive: -0.008.

**Q.** For GDI2 (UniProt Q5SX86), which log2 fold change is on record?
**A.** Its log2 fold change is inactive: 0.06.

**Q.** How did the log2 fold change turn out when GFOD1 (UniProt Q9NXC2) was run?
**A.** Its log2 fold change is inactive: 0.232.

**Q.** How did the log2 fold change turn out when FZR1 (UniProt Q9UM11) was run?
**A.** Its log2 fold change is inactive: 0.086.

**Q.** With FUT4 (UniProt P22083) as the target, how does the log2 fold change read?
**A.** Its log2 fold change is inactive: 0.151.

**Q.** With G6PD (UniProt E7EUI8) as the target, how does the log2 fold change read?
**A.** Its log2 fold change is inactive: 0.209.

**Q.** With GCC1 (UniProt Q96CN9) as the target, how does the log2 fold change read?
**A.** The log2 fold change was inactive: 0.171.

**Q.** For GDPD5 (UniProt Q8WTR4), which log2 fold change is on record?
**A.** Its log2 fold change is inactive: 0.016.

— the supplement of paper PMC10849652
